# Patent publication US20220395549A1, “COMPOSITIONS OF THE OLEA EUROPAEA V. SYLVESTRIS WITH ANTIMICROBIAL EFFICACY” (TAPROGGE GMBH, priority 2019, published 2022)
# For at least one compound, name, drawing or mass did not settle the structure.
# Test system: S. aureus ATCC 6538
# Test: quantitative suspension assay of mono-substances
# Assay type: cell-based, Staphylococcus aureus
# Details: detection limit of the assay 100 CFU/ml
# Procedure: A stock solution was prepared by adding 0.1 ml methanol to 10.48 mg of hydroxytyrosol. After dissolving of the compound, the solution was quantitatively transferred into 4.9 ml water for injection (WFI), effective concentration of hydroxytyrosol: 2.0 mg/ml.
# Using the stock solution, five (5) concentrations of hydroxytyrosol in a geometric series of 2 mg hydroxytyrosol/ml to 0.125 mg hydroxytyrosol/ml were tested in a quantitative suspension assay. […]
# Using the stock solution, concentrations of oleocanthal in a geometric series of 1 mg oleocanthal/ml to 0.125 mg oleocanthal/ml were tested in a quantitative suspension assay. […]
# Using the stock solution, concentrations of oleacin at 0.25 mg oleacin/ml and 0.125 mg oleacin/ml were tested in a quantitative suspension assay. […]
# A stock solution was prepared by adding 0.1 ml chloroform to 25 mg of uvaol. After dissolving of the compound, the solution was quantitatively transferred into 12.4 ml water for injection (WFI), effective concentration of uvaol: 2.0 mg/ml.
# Using the stock solution, five (5) concentrations of uvaol in a geometric series of 2 mg uvaol/ml to 0.125 mg uvaol/ml were tested in a quantitative suspension assay. […]
row,Compound,"antimicrobial effect, summary in words"
1,OCCc1ccc(O)c(O)c1 [Hydroxytyrosol],significant effect only after 24 hours
2,C[C@H]1[C@H](C)CC[C@]2(CO)CC[C@]3(C)C(=CC[C@@H]4[C@@]5(C)CC[C@H](O)C(C)(C)[C@@H]5CC[C@]43C)[C@H]12 [uvaol],effect after an incubation of more than 24 hours at concentrations of 0.25 Uva/ml or more
